In publication PMC10906927, “Structure of the PCNA unloader Elg1-RFC” (Science Advances, 2024):
The exact form of at least one protein or probe is not confirmed. Negatives hold for the conditions tested.

Tested on: Elg1-RFC (Elg1, Rfc2, Rfc3, Rfc4, Rfc5) + PCNA (cryo-EM sample)
Assay: cryo-EM
Settings: 0.5 mM ATPgS, 6.7 mM Mg-acetate, glutaraldehyde used to stabilise Elg1-RFC-PCNA, no DNA density; Loading/gel filtration: 20 mM Tris-HCl pH 7.5, 0.5 mM EDTA, 0.1 mg/ml BSA, 4% glycerol, 8 mM MgCl2, 2 mM DTT, 50 mM NaCl (100 mM in column), 2 mM ATP; recombinant protein; protein details: 3xFLAG on Elg1

Does “GCCTAGCTCGACGCCATTAATAATGTTTTC / GAAAACATTATTAATGGCGTCGAGCTAGGCACAAGGCGAACTGCTAACGG [30-nt primer/50-nt template tailed DNA]” bind?
Result: no binding
